Experimental data: PubChem BioAssay AID1671190 (National Center for Advancing Translational Sciences (NCATS), 2021)
Values joined by “and” are separate entries in the source; they are usually repeats but may differ in a detail not shown here. Identical values can stand only once. Hit rate of the full screen: of about 580,000 compounds, about 6,100 (1.1%) were called active. The inconclusive results got no clear call from the source; some entries with a clear call stand among them for comparison. Calls come from the whole dose curve; as a rule, active = well fitted inhibition curve with a large enough effect; inconclusive = small, poorly fitted or top-dose-only effect, or another doubt; inactive = no such curve, though single readings can be large or run the other way. A potency beside an inconclusive call is a rough fit, not a confirmed value.
% is set by controls: 0 for no effect and ±100 for the full control effect; potency is the fitted concentration of half-maximal effect.

By UniProt entry, the sequences of proteins in these tests, tags left out.
UniProt P18054, whole entry, looked up: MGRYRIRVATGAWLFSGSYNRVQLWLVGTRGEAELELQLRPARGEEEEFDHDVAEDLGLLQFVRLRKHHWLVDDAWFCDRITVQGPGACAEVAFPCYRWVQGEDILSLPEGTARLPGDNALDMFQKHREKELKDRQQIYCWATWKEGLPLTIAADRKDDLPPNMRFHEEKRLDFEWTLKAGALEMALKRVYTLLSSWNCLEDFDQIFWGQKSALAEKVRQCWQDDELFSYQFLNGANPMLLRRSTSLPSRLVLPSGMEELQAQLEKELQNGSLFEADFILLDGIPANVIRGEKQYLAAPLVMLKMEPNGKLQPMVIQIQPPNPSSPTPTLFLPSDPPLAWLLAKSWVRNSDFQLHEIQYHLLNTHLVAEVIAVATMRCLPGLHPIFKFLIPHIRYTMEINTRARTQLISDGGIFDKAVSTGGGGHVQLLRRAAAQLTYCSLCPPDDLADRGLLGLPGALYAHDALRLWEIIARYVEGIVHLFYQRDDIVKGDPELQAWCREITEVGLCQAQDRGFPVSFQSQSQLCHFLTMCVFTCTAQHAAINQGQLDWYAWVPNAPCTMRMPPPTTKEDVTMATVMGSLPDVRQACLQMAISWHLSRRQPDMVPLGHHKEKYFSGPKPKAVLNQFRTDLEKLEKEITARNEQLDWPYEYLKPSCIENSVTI

The compounds below were run against Polyunsaturated fatty acid lipoxygenase ALOX12 (Homo sapiens) (UniProt P18054) (assay: Primary qHTS assay for inhibitors of human arachidonate 12S-lipoxygenase (ALOX12): Round 2). Conditions: purified 12hLO, xylenol orange hydroperoxide absorbance; activity change, negative = inhibition: at 108 µM (top of the series) unless noted.
How it was run: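 Purified human 12hLO (150 nM final) in 25 mM Hepes, 0.01% Triton X-100, pH 7.0 was preincubated 15 min at room temperature with compound. Then 40 uM arachidonic acid was added, 30 min. Hydroperoxide was read by Fe-XO absorbance ratio 573/405 nm.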
In the case of `CC1CN(Cc2ccccc2)c2nc3c(c(=O)[nH]c(=O)n3C)n2C1` (centres undefined), the Potency is reported as inconclusive: 112 µM [inhibitor, single point].
`Cc1ccc(C)c(NS(=O)(=O)c2ccc3oc(=O)ccc3c2)c1` was tested, and the Potency was inconclusive: 100 µM [inhibitor, single point].
In the case of `O=C(NCc1ccc(Cl)cc1)OCc1ccccc1`, the Potency is reported as inconclusive: 89.1 µM [inhibitor, single point].
For `Cc1ccc(Cl)cc1-c1cc(C(=O)N2CCc3ccccc3C2)[nH]n1`, the “activity change, negative = inhibition” value was inactive: 2.65%.
For `O=C(/C=C/c1ccccc1)NC(O)C(=O)c1ccccc1` (centres undefined), the Potency was inconclusive: 44.7 µM [inhibitor, partial curve, poor fit].
For `O=C(Cn1ccc2cc(Cl)ccc21)Nc1ccc2c(c1)OCCO2`, the Potency was inconclusive: 100 µM [inhibitor, partial curve, poor fit].
With `COC(=O)c1cc(CSc2nnc(NC3CCCCC3)s2)oc1C` the Potency was inconclusive: 0.224 µM [inhibitor, single point].
`CC(C)OC(=O)/C(=C/c1ccc2c(c1)c1ccccc1n2C)NC(=O)c1ccccc1` was tested, and the “activity change, negative = inhibition” value was inactive: 2.05%.
In the case of `CC(=O)Nc1ccc(/C=C(\C#N)C(=O)NCc2ccccc2)cc1`, the Potency is reported as inconclusive: 7.08 µM [inhibitor, full curve].
With `CC(C)(C)CC(=O)NCC(=O)O` the “activity change, negative = inhibition” value was inactive: -8.32%.
With `Cc1cc(=O)oc2cc(OC(=O)c3cncc(Br)c3)ccc12` the “activity change, negative = inhibition” value was inactive: 3.93%.
In the case of `CCCCNC(=O)c1cc(-c2ccc(OC)cc2)nc2n[nH]c(-c3cccc([N+](=O)[O-])c3)c12`, the “activity change, negative = inhibition” value is reported as inactive: 5.08%.
In the case of `CCOC(=O)c1ccccc1NC(=O)CN1CCCN(Cc2cccc(Cl)c2)S1(=O)=O`, the Potency is reported as inconclusive: 100 µM [inhibitor, partial curve, poor fit].
In the case of `CCC(=O)c1ccc(OCC(=O)N2CCc3cc(OC)c(OC)cc3C2)cc1`, the Potency is reported as inconclusive: 56.2 µM [inhibitor, partial curve, poor fit].
In the case of `CCc1ccc(NC(=O)CCNS(=O)(=O)c2ccc3c(c2)oc(=O)n3C)cc1`, the Potency is reported as inconclusive: 11.2 µM [inhibitor, full curve].
`CCOc1ccccc1NC(=O)/C=C/c1ccc2ccccc2n1` was tested, and the Potency was inconclusive: 44.7 µM [inhibitor, partial curve, poor fit].
In the case of `Cn1c(=O)[nH]c(=O)c2c1nc(SCCCc1ccccc1)n2Cc1ccccc1`, the “activity change, negative = inhibition” value is reported as inactive: -7.4%.
`CC(C)Cc1nn2c(=O)cc(COC(=O)c3ccccc3NC(=O)C3CCCCC3)nc2s1` was tested, and the Potency was inconclusive: 112 µM [inhibitor, partial curve, poor fit].
In the case of `Fc1ccc(-c2csc(=S)[nH]2)cc1`, the Potency is reported as inconclusive: 44.7 µM [inhibitor, partial curve, poor fit] and active: 7.94 µM.
With `Cc1ccc(NC(=O)NC(=O)N(C(C)C)S(C)(=O)=O)nc1` the “activity change, negative = inhibition” value was inactive: 2.63%.
In the case of `O=C(Nc1ccc(Oc2ccccc2)cc1)c1n[nH]c(=O)c2ccccc12`, the Potency is reported as inconclusive: 70.8 µM [inhibitor, partial curve, poor fit].
With `Cc1nn(-c2ccccc2)c(C)c1/C=N/NC(=O)c1cc(-c2ccc(Cl)s2)[nH]n1` the “activity change, negative = inhibition” value was inactive: -1.87%.
With `CCc1nnc2c(Nc3ccc(N(CC)CC)cc3C)nc3ccccc3n12` the Potency was inconclusive: 50.1 µM [inhibitor, partial curve, poor fit].
For `O=C(N/N=C1/CCSC1)c1cc(Br)ccc1O`, the Potency was inconclusive: 31.6 µM [inhibitor, partial curve, poor fit].
`CN(C)c1ccc(NC(=O)Nc2ccc3c(c2)c(=O)n(C)n3-c2ccccc2)cc1` was tested, and the Potency was inconclusive: 126 µM [inhibitor, single point].
For `COc1cncc([C@@H](NS(=O)(=O)c2cnn(C)c2)C2CC(O)C2)c1` (some centres undefined), the “activity change, negative = inhibition” value was inactive: 64.4%.
In the case of `CC1(C)CC(=O)C(CCS(=O)(=O)Oc2ccccc2)(CCS(=O)(=O)Oc2ccccc2)C(=O)C1`, the Potency is reported as inconclusive: 141 µM [inhibitor, single point].
`COCC1CN(C2CCC2)CC12CCN(C(=O)Cc1cccc(F)c1)CC2` (centres undefined) was tested, and the “activity change, negative = inhibition” value was inactive: 47.4%.
With `C=CCSc1nnc(NC(=O)c2ccc(Cl)nc2)s1` the Potency was inconclusive: 39.8 µM [inhibitor, single point].
In the case of `CN1C[C@@H](NS(=O)(=O)Cc2ccccc2)C[C@H]1c1nc(Cc2ccccc2)no1`, the “activity change, negative = inhibition” value is reported as inactive: 37.7% [at 176 µM].
In the case of `O=S(=O)(c1ccc(F)cc1)N1CCN(c2ccc(F)cc2)CC1`, the “activity change, negative = inhibition” value is reported as inactive: -1.92%.
In the case of `CN(C)CCn1c(=O)n(-c2cccc(Cl)c2)c(=O)c2c3c(sc21)CCCCC3`, the Potency is reported as inconclusive: 112 µM [inhibitor, single point].
`CNc1ncnc2c1ncn2[C@H]1CN(Cc2cccc3ccccc23)C[C@@H](CO)O1` was tested, and the “activity change, negative = inhibition” value was inactive: -25.9%.
For `CCCCS(=O)CSc1nc(-c2cccs2)cc(-c2ccccc2)c1C#N` (centres undefined), the Potency was inconclusive: 39.8 µM [inhibitor, partial curve, poor fit].
With `Cc1cccc(Oc2nc3ccccn3c(=O)c2/C=C(\C#N)C(=O)NC2CCS(=O)(=O)C2)c1` (centres undefined) the “activity change, negative = inhibition” value was inactive: -23.7%.
`CC(=O)c1ccc(S(=O)(=O)N2CCCC2c2cccn2C)cc1` (centres undefined) was tested, and the Potency was inconclusive: 56.2 µM [inhibitor, partial curve, poor fit].
`O=[N+]([O-])c1nc2ccccc2[nH]1` was tested, and the Potency was inconclusive: 25.1 µM [inhibitor, partial curve].
For `COc1ccccc1NC(=O)CN1C(=O)c2ccccc2Sc2ccc(C(=O)N3CCCC3)cc21`, the Potency was inconclusive: 5.62 µM [inhibitor, full curve, poor fit].
`C/C=C\C=C\C(=O)Nc1cccc(C2=NOC3(C2)C[C@@H](C(N)=O)N(C(=O)C(c2ccccc2)c2ccccc2)C3)c1` (some centres undefined) was tested, and the Potency was active: 8.91 µM.
In the case of `CN1CCN(CCCNC(=O)C23CCCC=C2N(C2CCCC2)C(=O)CC3)CC1` (centres undefined), the “activity change, negative = inhibition” value is reported as inactive: 62.9%.
`O=C1CO[C@H]2CN(c3ncccn3)C[C@H]2N1CC1CCCCC1` was tested, and the Potency was active: 28.2 µM.
`C=CCn1c(O)c(N=Nc2ccccc2C)c2ccccc21` was tested, and the Potency was inconclusive: 7.08 µM [inhibitor, full curve, poor fit].
`C/C(=N/Nc1ccc(S(=O)(=O)Nc2ccc(C)cc2C)cc1[N+](=O)[O-])c1ccco1` was tested, and the “activity change, negative = inhibition” value was inactive: -1.35%.
For `CN(C)c1ccc(C(=O)N[C@H]2C[C@H]3C(=O)NC[C@@H](CCC(=O)N4CCc5ccccc54)N3C2)cc1`, the Potency was inconclusive: 5.01 µM [inhibitor, full curve].
